From article PMC9282853 come the findings set out here.

Results are given in words; binding and its absence hold for the method and conditions named. In cells and extracts the contact can be indirect. Here binding means that the protein was enriched with, or labelled near, the bait; the list need not be complete. Where a sequence is shown, tags or fusion partners need not be part of it.

This assay has as its target T1, HA-tagged full-length Samd14 (sterile alpha motif domain-containing protein 14) (mouse) (UniProt Q8K070).
T1 sequence: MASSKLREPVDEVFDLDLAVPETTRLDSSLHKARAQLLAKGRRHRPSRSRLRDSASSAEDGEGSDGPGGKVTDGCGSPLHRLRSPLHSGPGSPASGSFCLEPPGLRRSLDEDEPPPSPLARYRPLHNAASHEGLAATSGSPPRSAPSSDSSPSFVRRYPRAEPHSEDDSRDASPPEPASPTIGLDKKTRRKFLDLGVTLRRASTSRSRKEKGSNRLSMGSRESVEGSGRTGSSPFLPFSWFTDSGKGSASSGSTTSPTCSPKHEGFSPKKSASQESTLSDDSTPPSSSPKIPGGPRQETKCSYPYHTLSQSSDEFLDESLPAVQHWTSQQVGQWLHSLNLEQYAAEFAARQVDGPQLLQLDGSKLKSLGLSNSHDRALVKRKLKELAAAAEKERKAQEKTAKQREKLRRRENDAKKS
Nature of the assay: affinity purification with mass spectrometry; anti-HA agarose beads on lysates (1% NP-40 lysis buffer) of GFP-sorted G1E-ΔEnh cells expressing HA-Samd14 or empty vector; LC-MS/MS, N=3.

“Capzα2 (F-actin capping protein α2 subunit), endogenous in G1E cells (from UniProt P47754 1-286)”: the binding result is “binds”.
The entry for “Capzβ (F-actin capping protein β subunit), endogenous in G1E cells (from UniProt P47757 1-277)” is “binds”.
